Assay results: the supplement of paper PMC10849652
The list shows a part of the results.

Protein sequences, listed by entry. Tags and fused reporters are not part of them. Lines headed by an entry give the natural chain unless they say otherwise; changes in a name come on top.
UniProt Q9NRK6: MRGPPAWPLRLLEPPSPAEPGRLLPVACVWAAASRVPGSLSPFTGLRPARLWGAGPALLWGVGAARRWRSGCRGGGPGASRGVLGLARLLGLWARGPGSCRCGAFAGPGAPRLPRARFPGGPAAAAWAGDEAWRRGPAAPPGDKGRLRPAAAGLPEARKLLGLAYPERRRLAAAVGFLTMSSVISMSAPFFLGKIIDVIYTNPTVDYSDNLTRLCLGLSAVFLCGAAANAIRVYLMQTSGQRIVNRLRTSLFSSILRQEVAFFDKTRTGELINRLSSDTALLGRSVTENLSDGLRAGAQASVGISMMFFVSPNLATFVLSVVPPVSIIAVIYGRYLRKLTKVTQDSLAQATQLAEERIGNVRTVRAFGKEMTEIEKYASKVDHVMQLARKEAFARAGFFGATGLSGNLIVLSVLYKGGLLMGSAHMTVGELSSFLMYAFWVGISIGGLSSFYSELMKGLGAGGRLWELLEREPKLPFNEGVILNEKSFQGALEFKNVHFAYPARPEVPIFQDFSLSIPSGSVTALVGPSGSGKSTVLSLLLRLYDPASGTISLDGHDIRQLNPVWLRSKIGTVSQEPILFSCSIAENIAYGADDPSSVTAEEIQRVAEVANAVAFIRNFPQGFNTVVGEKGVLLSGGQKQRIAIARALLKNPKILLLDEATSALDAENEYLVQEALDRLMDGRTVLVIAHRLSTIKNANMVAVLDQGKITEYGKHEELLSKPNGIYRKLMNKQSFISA
UniProt Q9NUJ1: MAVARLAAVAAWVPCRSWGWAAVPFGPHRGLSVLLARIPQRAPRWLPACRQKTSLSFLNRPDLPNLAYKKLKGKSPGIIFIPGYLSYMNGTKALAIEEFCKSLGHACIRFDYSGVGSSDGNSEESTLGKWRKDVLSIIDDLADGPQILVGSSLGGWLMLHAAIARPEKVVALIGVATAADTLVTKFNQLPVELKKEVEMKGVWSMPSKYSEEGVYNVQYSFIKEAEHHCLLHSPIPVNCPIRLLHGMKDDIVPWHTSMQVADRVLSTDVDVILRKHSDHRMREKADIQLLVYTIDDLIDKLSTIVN
UniProt Q96GS6: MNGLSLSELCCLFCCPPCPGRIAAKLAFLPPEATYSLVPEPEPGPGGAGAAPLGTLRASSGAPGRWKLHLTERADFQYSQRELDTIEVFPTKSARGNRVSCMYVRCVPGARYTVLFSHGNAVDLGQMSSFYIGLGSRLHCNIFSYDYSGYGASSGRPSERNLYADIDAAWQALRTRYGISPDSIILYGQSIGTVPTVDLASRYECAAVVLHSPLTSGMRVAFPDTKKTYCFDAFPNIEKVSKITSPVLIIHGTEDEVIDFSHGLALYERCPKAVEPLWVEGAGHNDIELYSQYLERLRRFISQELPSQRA
UniProt Q9ULW3: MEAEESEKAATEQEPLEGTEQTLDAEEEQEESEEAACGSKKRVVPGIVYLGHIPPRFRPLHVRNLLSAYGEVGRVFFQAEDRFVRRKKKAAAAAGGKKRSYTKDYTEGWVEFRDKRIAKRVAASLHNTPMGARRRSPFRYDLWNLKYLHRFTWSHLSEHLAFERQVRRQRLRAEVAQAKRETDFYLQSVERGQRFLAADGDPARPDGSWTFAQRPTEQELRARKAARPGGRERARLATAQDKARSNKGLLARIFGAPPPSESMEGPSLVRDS
UniProt P21399: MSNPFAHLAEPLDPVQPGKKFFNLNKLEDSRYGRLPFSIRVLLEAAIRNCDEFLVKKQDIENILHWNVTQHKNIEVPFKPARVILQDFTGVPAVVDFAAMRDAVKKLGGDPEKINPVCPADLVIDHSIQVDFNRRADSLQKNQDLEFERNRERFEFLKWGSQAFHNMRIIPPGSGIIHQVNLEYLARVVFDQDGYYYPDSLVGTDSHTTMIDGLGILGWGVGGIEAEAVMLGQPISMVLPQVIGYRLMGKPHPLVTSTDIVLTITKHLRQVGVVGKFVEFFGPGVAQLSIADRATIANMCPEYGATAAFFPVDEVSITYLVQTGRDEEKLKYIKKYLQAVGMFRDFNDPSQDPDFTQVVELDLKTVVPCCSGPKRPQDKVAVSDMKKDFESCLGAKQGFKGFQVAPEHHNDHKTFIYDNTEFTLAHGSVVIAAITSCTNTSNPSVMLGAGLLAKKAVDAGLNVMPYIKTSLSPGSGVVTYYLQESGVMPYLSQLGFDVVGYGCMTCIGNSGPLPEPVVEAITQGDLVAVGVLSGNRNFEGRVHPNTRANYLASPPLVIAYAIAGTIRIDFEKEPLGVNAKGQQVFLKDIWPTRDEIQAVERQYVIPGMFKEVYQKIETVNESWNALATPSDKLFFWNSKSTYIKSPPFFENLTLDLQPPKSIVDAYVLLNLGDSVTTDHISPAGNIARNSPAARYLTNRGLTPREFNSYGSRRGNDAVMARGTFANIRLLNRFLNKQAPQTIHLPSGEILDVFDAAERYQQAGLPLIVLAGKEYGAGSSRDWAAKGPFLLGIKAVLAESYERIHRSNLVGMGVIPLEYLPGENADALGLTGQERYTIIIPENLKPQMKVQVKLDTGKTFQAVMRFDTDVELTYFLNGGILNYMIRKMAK
UniProt P16219: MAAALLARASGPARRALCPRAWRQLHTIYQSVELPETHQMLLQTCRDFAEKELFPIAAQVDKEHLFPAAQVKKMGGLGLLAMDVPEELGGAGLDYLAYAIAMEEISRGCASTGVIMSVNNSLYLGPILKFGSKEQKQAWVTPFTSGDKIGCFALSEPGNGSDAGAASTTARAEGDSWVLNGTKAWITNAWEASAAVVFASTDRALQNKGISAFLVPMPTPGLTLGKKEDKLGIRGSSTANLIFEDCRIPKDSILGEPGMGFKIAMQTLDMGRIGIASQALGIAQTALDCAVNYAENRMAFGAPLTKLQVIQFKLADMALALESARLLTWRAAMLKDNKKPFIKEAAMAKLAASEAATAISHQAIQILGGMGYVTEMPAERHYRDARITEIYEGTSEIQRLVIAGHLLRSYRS
UniProt Q9BR61: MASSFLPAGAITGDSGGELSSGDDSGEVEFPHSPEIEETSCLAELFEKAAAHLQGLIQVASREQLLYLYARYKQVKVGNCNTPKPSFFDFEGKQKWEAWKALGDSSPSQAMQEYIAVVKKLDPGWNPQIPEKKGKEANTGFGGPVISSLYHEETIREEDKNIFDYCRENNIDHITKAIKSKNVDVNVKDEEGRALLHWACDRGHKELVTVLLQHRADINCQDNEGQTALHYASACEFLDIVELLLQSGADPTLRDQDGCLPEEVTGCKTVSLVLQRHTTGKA
UniProt Q8NE71: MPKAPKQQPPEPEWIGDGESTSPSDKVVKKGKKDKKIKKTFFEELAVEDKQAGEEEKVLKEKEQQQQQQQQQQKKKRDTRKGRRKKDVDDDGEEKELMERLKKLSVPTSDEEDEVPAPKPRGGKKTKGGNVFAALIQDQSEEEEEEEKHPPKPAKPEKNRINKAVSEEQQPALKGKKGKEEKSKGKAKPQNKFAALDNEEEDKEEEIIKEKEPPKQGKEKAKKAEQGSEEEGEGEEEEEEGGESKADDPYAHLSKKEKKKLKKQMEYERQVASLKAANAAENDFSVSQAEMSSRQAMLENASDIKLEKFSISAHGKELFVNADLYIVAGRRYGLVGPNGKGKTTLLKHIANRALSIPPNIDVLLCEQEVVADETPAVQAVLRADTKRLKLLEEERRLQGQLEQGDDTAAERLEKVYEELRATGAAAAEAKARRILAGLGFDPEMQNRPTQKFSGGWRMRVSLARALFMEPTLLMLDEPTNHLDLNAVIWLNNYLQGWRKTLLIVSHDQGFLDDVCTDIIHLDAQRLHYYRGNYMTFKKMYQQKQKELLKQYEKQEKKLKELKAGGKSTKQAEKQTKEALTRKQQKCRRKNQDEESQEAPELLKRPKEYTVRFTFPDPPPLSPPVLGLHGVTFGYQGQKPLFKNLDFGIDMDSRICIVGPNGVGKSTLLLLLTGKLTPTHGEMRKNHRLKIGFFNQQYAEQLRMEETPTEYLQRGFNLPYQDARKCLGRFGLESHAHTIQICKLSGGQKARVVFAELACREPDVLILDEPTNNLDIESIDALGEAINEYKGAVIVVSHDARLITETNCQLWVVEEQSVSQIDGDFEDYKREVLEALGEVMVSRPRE
UniProt O95870: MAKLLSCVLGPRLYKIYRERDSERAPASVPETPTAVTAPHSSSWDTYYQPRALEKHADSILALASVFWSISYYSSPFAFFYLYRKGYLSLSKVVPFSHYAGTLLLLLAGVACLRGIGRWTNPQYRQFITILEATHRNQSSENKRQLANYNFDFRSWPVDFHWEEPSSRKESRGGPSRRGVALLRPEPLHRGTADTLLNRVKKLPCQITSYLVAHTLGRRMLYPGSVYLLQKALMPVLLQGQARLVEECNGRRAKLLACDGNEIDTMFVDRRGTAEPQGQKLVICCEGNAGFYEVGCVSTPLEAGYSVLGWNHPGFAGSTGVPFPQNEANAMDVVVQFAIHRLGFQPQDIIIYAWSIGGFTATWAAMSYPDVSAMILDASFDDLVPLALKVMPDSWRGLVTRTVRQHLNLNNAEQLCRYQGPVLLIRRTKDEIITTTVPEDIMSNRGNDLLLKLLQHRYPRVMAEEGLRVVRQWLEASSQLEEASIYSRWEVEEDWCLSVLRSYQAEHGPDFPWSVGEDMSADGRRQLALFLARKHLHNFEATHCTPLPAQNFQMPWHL
UniProt Q9BTE6: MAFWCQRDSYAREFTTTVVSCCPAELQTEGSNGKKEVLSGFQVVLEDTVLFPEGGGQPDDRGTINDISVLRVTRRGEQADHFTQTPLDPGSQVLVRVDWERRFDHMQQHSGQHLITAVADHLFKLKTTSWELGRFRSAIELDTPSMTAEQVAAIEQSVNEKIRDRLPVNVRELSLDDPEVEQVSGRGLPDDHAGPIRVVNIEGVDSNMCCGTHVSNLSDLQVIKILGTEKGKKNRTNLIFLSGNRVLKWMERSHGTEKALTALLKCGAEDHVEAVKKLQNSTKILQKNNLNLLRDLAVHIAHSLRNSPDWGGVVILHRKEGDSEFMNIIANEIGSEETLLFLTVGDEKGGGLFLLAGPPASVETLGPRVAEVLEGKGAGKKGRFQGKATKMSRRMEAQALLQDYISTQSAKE
UniProt Q9H7C9: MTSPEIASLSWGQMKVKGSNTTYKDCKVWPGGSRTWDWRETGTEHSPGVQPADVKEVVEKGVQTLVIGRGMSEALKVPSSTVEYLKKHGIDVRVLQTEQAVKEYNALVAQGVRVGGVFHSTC
UniProt Q9NX38: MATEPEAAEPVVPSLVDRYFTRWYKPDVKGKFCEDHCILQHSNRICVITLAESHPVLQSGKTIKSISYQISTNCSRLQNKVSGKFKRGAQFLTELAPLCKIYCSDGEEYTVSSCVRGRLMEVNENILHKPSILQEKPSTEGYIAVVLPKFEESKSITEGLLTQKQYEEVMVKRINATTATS
UniProt Q9H3P7: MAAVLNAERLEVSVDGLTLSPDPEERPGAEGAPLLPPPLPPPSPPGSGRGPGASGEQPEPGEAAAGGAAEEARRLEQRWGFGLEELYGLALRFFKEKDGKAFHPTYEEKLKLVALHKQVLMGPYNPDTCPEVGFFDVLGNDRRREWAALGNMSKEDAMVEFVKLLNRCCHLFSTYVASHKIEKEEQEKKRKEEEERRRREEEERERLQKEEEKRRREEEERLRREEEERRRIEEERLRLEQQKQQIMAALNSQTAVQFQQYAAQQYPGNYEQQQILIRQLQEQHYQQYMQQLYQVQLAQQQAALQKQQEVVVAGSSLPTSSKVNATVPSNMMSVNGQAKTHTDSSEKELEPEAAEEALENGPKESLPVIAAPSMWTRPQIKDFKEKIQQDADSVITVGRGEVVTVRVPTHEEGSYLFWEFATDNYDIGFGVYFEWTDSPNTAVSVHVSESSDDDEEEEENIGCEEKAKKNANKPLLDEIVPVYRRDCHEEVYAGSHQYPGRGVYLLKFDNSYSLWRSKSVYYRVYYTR
UniProt Q9NY61: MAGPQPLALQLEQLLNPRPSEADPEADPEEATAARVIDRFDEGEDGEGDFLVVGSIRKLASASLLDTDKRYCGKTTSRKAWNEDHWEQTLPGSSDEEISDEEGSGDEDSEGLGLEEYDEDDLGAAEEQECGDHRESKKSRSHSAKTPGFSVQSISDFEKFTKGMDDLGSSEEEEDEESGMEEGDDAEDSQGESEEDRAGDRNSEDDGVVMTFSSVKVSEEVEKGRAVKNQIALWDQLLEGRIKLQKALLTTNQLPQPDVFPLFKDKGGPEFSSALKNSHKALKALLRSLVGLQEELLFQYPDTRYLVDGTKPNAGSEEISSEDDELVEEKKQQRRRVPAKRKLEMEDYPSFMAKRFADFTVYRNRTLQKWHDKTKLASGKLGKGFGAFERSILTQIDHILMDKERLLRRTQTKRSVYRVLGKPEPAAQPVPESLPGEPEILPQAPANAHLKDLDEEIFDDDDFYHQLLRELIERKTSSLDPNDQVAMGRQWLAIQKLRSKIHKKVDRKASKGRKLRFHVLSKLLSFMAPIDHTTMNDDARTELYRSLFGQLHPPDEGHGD

Compound: CC1=C(C2=C(C=C1)C(=O)C3=CC=CC=C3N2CCCN)C
Assay: log2 fold change, soluble protein after heating vs DMSO (PISA); higher = thermal stabilisation; K562 lysate, 10 uM; active = over 0.2 and 3.5 SD of the protein, either way, in both replicates (recomputed)
In short: (§1)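 Pellets of K562 cells were dounce-homogenised in PBS pH 7.4 with 1 mM MgCl2, and the crude extract was held at 1 mg/mL protein for a 30 min treatment with 10 μM compound. Aliquots were heated for 3 min over 48°C-58°C and pooled before NP-40 was added to 0.5% at 4°C. The supernatant from 21,000xg for 90 min was quantified by TMTpro 16plex LC-MS/MS with channel sums equalised. Values are reported from duplicates as log-two fold change in thermal stability relative to solvent controls.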

Target | log2 fold change
A0A096LPI6, A0A096LPI6 | inactive: -0.008
ABCB10 (UniProt Q9NRK6) | inactive: 0.012
ABHD10 (UniProt Q9NUJ1) | inactive: -0.04
ABHD17A isoform 2 (UniProt Q96GS6) | inactive: -0.065
ABT1 (UniProt Q9ULW3) | inactive: -0.048
ACO1 (UniProt P21399) | inactive: 0.017
ACADS (UniProt P16219) | inactive: -0.022
ACBD6 (UniProt Q9BR61) | inactive: 0.001
ABCF1 (UniProt Q8NE71) | inactive: -0.023
ABHD16A (UniProt O95870) | inactive: 0.03
AARSD1 isoform 3 (UniProt Q9BTE6) | inactive: 0.022

Compound: CC1=C(C=C(C=C1)NC(=O)C2=CC(=CC=C2)C(C)(C)C#N)NC3=CC4=C(C=C3)N=CN(C4=O)C
Assay: as above
In short: as §1

Target | log2 fold change
AAK1, A0A096LP25 | inactive: -0.021
AAMDC (UniProt Q9H7C9) | inactive: 0.055
ACIN1 (UniProt E7EQT4) | inactive: 0.094
ACCS (UniProt Q96QU6) | inactive: 0.091
A0A0B4J2A0, A0A0B4J2A0 | inactive: 0.002
ABL1 isoform 2 (UniProt P00519) | inactive: 0.048
ABITRAM (UniProt Q9NX38) | inactive: 0.005
AACS (UniProt Q86V21) | inactive: -0.04
ABCF2 isoform 2 (UniProt Q9UG63) | inactive: -0.013
ACACA isoform 4 (UniProt Q13085) | inactive: 0.021
ABCB7 isoform 2 (UniProt O75027) | inactive: -0.019
ACADVL isoform 3 (UniProt P49748) | inactive: -0.043
ABCC4 (UniProt O15439) | inactive: 0.031
ABCD3 (UniProt P28288) | inactive: -0.028
ABRAXAS2 (UniProt Q15018) | inactive: 0.007
ACBD3 (UniProt Q9H3P7) | inactive: 0.002
ACIN1 isoform 5 (UniProt Q9UKV3) | inactive: -0.042

Target | log2 fold change
A2M (UniProt P01023) | inactive: -0.026
AARS (UniProt P49588) | inactive: -0.013
ABI1 isoform 9 (UniProt Q8IZP0) | inactive: 0.024
AATF (UniProt Q9NY61) | inactive: -0.022
AAGAB (UniProt Q6PD74) | inactive: 0.036
A0A096LPI6, A0A096LPI6 | inactive: -0.004
ABCB10 (UniProt Q9NRK6) | inactive: 0.031
ABHD10 (UniProt Q9NUJ1) | inactive: -0.007
ABHD17A isoform 2 (UniProt Q96GS6) | inactive: -0.023
ABT1 (UniProt Q9ULW3) | inactive: 0.025
ACO1 (UniProt P21399) | inactive: -0.024
ACADS (UniProt P16219) | inactive: 0.004
ACBD6 (UniProt Q9BR61) | inactive: 0.062
ABCF1 (UniProt Q8NE71) | inactive: 0.008
ABHD16A (UniProt O95870) | inactive: -0.031
AARSD1 isoform 3 (UniProt Q9BTE6) | inactive: -0.025

Compound: CC1=C(C=C(C=C1)NC(=O)C2=CC(=CC=C2)N(C)C)NC(=O)C3=CC=C(C=C3)O
Assay: as above
In short: as §1

Target | log2 fold change
AAK1, A0A096LP25 | inactive: -0.001
AAMDC (UniProt Q9H7C9) | inactive: 0.006
ACIN1 (UniProt E7EQT4) | inactive: -0.03
ACCS (UniProt Q96QU6) | inactive: 0.088
A0A0B4J2A0, A0A0B4J2A0 | inactive: 0.025
ABL1 isoform 2 (UniProt P00519) | inactive: 0.011
ABITRAM (UniProt Q9NX38) | inactive: 0.049
AACS (UniProt Q86V21) | inactive: 0.056
ABCF2 isoform 2 (UniProt Q9UG63) | inactive: 0.021
ACACA isoform 4 (UniProt Q13085) | inactive: 0.048
ABCB7 isoform 2 (UniProt O75027) | inactive: 0.001
ACADVL isoform 3 (UniProt P49748) | inactive: -0.014
ABCC4 (UniProt O15439) | inactive: -0.014
ABCD3 (UniProt P28288) | inactive: -0.073
ABRAXAS2 (UniProt Q15018) | inactive: 0.004
ACBD3 (UniProt Q9H3P7) | inactive: 0.018
ACIN1 isoform 5 (UniProt Q9UKV3) | inactive: 0.003

Target | log2 fold change
A2M (UniProt P01023) | inactive: 0.023
AARS (UniProt P49588) | inactive: 0.004
ABI1 isoform 9 (UniProt Q8IZP0) | inactive: -0.012
AATF (UniProt Q9NY61) | inactive: 0.017
AAGAB (UniProt Q6PD74) | inactive: 0.006
A0A096LPI6, A0A096LPI6 | inactive: -0.018
ABCB10 (UniProt Q9NRK6) | inactive: 0.001
ABHD10 (UniProt Q9NUJ1) | inactive: 0.001
ABHD17A isoform 2 (UniProt Q96GS6) | inactive: -0.097
ABT1 (UniProt Q9ULW3) | inactive: 0.033
ACO1 (UniProt P21399) | inactive: -0.025
ACADS (UniProt P16219) | inactive: -0.027
ACBD6 (UniProt Q9BR61) | inactive: 0.027
ABCF1 (UniProt Q8NE71) | inactive: 0.046
ABHD16A (UniProt O95870) | inactive: -0.077
AARSD1 isoform 3 (UniProt Q9BTE6) | inactive: 0.019
